Reference: publication PMC6911156
Results are given in words; binding and its absence hold for the method and conditions named. In cells and extracts the contact can be indirect. Some results given as binding are weak or reduced against the parent protein; the word gives no strength.

By UniProt entry, the sequences of proteins in these tests, tags left out. Residues count along the entry.
UniProt O75376: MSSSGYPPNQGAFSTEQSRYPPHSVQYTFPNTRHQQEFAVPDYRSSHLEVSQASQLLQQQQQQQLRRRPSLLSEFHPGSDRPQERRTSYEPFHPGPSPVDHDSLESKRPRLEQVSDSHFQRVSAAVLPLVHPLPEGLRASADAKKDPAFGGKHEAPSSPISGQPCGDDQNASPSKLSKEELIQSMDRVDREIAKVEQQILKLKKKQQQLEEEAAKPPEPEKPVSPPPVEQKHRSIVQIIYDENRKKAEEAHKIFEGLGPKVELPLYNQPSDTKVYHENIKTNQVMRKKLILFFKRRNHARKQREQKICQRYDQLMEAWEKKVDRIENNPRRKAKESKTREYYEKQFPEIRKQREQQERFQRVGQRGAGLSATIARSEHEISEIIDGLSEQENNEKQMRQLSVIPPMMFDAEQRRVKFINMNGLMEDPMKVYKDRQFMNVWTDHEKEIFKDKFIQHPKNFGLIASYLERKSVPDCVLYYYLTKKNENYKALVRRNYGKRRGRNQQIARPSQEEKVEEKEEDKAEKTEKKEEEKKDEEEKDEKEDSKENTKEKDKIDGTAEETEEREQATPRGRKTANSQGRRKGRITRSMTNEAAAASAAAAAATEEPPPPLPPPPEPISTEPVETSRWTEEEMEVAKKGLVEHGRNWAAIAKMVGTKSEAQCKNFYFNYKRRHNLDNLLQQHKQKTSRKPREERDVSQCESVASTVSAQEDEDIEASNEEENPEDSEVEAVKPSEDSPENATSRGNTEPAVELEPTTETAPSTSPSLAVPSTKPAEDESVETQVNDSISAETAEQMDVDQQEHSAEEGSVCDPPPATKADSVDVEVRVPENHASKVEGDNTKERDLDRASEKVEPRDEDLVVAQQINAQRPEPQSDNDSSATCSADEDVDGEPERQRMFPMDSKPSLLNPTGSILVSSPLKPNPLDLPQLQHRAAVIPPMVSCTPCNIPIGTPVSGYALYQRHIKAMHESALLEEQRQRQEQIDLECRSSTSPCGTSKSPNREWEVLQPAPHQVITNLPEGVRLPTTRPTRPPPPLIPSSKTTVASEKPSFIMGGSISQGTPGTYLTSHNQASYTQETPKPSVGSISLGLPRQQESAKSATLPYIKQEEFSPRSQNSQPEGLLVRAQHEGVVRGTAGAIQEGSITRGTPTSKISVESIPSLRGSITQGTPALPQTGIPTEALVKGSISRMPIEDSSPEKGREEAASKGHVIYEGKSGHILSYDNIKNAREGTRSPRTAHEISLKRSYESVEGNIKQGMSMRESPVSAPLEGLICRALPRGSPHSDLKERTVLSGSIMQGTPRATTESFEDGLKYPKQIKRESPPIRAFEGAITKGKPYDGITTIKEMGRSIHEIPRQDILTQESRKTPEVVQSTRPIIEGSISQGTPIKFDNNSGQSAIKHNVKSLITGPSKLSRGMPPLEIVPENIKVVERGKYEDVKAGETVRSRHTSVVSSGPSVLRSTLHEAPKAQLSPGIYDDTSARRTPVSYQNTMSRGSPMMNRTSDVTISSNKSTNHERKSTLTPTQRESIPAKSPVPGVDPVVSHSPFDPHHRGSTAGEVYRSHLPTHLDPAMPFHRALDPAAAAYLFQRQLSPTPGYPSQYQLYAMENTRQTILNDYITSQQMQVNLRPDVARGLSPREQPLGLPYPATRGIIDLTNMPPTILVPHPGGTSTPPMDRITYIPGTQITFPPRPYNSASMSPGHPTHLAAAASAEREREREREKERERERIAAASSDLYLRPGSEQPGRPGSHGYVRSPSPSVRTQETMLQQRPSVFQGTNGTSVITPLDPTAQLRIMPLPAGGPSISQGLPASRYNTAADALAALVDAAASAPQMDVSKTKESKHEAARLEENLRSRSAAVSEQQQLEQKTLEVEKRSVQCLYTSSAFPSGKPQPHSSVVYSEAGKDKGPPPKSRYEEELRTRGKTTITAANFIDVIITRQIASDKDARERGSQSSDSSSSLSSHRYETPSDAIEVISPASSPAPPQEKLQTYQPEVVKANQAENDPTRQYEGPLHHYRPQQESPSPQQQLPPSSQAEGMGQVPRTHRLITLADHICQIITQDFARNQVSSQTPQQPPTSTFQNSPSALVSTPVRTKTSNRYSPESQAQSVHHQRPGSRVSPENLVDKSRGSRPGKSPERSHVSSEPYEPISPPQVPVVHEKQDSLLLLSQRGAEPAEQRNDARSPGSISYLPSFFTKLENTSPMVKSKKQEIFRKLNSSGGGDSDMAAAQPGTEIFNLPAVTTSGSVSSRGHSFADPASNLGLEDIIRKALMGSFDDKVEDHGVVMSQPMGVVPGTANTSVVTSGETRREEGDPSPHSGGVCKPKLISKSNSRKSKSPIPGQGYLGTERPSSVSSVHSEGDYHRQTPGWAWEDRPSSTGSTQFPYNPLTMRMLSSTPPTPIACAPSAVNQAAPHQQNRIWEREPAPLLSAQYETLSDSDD
UniProt P80370, residues 24-383: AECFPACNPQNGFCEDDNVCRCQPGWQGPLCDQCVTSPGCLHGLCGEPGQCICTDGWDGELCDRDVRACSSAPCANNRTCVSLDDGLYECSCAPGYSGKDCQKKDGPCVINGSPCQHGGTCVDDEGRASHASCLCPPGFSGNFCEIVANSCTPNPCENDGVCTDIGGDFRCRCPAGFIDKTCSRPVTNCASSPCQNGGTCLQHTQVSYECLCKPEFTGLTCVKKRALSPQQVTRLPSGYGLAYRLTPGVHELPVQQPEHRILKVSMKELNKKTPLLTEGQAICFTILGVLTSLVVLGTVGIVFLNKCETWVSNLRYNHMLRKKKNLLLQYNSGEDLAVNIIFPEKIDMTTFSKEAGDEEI

Key:
[1] = target: nuclear receptor corepressor 1 (NCOR1) (human (endogenous in A549 and H1299)) (UniProt O75376); test: co-IP; endogenous proteins in RIPA lysates of A549 cells (IP anti-DLK1 and IP anti-NCOR1) and H1299 cells (IP anti-NCOR1); pre-cleared, protein A/G beads, Western blot; isotype IgG as control
[2] = target: Delta-like homolog 1 (DLK1) (human (endogenous in A549 and H1299)) (UniProt P80370); test: as above

binding [1] | binding [2] | Substance
binds | – | Delta-like homolog 1 (DLK1) (from UniProt P80370 24-383)
– | binds | nuclear receptor corepressor 1 (NCOR1) (from UniProt O75376 1-2440)
